The target of the assay is GFP-tagged TYK2 (UniProt P29597). In words: co-IP; MCF-7 cells expressing GFP-tagged TYK2, JAK1, JAK2 or JAK3 and HA-tagged ErbB4 JM-a or JM-b, after NRG-1 stimulation; cells cross-linked with 1-3 mM DSP or DTPB for 2 min before lysis; anti-GFP immunoprecipitation, Western blot.

Chains of the proteins cited; added tags and fusions are not shown. Lines headed by an entry give the natural chain unless they say otherwise; changes in a name come on top. A line that says so, or that is headed by a name, gives the form on record, which may keep a tag or linker.
UniProt P29597: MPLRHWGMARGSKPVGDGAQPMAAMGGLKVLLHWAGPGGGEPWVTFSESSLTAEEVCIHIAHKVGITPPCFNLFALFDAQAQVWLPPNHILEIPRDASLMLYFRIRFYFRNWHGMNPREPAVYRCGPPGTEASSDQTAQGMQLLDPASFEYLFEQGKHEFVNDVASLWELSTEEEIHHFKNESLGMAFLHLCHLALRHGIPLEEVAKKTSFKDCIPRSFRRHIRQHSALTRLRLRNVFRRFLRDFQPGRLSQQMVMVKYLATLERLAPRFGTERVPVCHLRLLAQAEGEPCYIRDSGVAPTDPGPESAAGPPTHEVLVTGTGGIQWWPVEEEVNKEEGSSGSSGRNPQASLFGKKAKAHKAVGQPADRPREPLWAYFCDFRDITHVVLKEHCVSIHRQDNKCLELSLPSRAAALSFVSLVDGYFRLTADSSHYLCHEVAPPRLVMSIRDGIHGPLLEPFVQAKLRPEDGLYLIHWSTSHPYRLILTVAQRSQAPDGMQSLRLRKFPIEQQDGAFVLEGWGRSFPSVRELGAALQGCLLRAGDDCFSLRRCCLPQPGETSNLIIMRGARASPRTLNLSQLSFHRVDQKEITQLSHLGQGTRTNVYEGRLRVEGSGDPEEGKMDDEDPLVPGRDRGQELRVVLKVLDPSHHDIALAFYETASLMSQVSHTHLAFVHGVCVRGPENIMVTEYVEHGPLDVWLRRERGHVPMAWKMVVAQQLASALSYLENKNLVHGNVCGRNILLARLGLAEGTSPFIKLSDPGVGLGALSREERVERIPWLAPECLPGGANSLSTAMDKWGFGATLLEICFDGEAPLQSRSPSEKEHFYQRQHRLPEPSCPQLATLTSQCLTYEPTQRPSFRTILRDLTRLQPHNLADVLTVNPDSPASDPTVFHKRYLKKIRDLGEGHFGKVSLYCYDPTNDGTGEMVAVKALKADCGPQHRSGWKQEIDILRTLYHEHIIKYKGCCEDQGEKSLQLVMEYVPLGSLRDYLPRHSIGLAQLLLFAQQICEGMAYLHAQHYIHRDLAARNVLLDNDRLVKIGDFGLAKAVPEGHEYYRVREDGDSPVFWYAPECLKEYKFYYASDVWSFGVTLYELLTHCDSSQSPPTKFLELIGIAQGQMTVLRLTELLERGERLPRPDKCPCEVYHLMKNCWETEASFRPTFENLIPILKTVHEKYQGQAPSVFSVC
ErbB4 JM-a CYT-2-HA (Q15303-3, form named): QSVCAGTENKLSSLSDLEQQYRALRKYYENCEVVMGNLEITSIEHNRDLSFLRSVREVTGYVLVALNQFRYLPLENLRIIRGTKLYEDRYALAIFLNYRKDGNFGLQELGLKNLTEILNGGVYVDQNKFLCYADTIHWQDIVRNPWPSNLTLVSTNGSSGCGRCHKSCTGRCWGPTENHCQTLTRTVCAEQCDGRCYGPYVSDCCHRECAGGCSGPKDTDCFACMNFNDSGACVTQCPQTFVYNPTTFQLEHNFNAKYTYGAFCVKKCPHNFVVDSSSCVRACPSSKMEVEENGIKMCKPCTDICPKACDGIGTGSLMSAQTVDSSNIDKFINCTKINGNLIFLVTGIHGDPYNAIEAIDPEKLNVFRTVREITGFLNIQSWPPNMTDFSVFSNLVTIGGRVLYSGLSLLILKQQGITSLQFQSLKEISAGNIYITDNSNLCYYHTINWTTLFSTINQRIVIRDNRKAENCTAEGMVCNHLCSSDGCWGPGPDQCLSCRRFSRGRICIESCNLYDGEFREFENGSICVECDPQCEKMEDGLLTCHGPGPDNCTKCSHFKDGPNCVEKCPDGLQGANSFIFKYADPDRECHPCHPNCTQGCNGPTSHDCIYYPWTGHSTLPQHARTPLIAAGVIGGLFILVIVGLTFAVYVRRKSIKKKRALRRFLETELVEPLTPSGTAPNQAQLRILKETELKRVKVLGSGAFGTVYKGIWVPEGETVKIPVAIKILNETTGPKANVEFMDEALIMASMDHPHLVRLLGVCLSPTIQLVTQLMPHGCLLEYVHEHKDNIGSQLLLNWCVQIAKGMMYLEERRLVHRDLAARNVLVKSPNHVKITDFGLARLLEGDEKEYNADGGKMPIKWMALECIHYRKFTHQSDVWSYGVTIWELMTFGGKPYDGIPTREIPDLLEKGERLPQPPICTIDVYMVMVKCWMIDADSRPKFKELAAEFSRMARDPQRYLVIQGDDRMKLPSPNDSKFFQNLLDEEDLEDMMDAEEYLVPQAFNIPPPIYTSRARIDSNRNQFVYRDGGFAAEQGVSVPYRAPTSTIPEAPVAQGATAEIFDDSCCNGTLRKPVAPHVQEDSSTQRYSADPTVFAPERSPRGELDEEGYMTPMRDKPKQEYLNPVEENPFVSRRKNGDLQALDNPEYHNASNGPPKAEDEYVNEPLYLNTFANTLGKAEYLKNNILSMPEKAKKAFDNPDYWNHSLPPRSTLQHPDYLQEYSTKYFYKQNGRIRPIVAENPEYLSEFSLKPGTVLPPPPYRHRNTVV
ErbB4 JM-b CYT-2-HA (Q15303-4, form named): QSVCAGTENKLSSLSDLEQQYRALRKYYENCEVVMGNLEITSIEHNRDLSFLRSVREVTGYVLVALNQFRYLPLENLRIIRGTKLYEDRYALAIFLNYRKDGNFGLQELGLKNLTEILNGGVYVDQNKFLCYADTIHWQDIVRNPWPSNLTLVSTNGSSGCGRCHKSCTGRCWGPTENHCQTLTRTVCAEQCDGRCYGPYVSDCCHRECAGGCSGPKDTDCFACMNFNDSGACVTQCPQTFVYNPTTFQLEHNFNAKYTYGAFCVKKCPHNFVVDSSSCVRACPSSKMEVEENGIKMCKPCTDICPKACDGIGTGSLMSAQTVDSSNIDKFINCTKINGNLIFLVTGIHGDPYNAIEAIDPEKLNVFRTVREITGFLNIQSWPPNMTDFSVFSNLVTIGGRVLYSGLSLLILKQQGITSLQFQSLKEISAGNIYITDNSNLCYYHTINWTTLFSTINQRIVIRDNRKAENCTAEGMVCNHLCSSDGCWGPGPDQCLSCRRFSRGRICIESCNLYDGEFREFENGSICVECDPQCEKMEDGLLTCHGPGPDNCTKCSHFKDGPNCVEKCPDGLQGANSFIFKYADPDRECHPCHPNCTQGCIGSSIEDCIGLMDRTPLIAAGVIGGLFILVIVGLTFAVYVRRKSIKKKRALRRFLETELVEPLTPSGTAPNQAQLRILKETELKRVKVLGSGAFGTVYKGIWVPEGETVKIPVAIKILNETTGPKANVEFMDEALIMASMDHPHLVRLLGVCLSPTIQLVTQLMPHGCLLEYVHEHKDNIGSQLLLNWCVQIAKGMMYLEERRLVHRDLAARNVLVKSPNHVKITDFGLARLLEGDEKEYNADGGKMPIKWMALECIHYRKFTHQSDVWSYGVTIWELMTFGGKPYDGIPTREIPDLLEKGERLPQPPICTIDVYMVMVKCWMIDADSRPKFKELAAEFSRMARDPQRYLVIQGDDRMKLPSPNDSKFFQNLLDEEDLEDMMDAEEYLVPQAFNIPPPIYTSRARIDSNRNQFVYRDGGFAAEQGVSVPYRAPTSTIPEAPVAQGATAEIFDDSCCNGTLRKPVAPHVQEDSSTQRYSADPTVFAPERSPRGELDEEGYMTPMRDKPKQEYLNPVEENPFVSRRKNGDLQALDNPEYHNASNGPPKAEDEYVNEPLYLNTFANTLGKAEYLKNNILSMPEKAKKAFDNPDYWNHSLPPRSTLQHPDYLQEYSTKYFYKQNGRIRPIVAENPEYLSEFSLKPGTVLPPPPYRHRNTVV

Results are given in words; binding and its absence hold for the method and conditions named. Binding seen in cells or lysates may run through a third protein. Some results given as binding are weak or reduced against the parent protein; the word gives no strength.

Take “ErbB4 JM-a CYT-2-HA (from UniProt Q15303-3 26-1292) (receptor)”: the binding result was “no binding”.

As to “ErbB4 JM-b CYT-2-HA (from UniProt Q15303-4 26-1282) (receptor)”, the binding entry is given as “binds”.

These data come from publication PMC9663514.
